From US20160237160A1, “ANTI-TWEAKR ANTIBODIES AND USES THEREOF” (BAYER PHARMA AKTIENGESELLSCHAFT, priority 2013, published 2016)
Numbering of substitutions follows the chain as printed. Numbers in names are those of the source. No constants are given. Whether binding was seen depends on the method and setting. Some binding calls cover weakened binding; strength is not graded here.

B1: P4A8(TPP-1324) (antibody, human IgG1, kappa, V domains shown)
VH: QVQLVQSGAEVKKPGASVKVSCKGSGYTFTDYGMHWVRQAPGQGLEWMGVISTYNGYTNYNQKFKGRVTMTVDKSTSTAYMELRSLRSDDTAVYYCARAYYGNLYYAMDYWGQGTLVTVSS
VL: DIVLTQSPASLAVSLGQRATISCRASKSVSTSSYSYMHWYQQKPGQPPKLLIKYASNLESGVPARFSGSGSGTDFSLNIHPMEEDDTAMYFCQHSRELPFTFGGGTKLEIKR
B2: TPP-883 Fab variant S36G of CDR-L1 (Fab, V domains shown)
VH: EVQLLESGGGLVQPGGSLRLSCAASGFTFSPYPMMWVRQAPGKGLEWVSYISPSGGKTHYADSVKGRFTISRDNSKNTLYLQMNSLRAEDTAVYYCARGGDGYFDYFDYWGQGTLVTVSS
VL: DIQMTQSPATLSASVGDRVTITCRASQSISGYLNWYQQKPGKAPKLLIYAASSLQSGVPSRFSGSGSGTDFTLTISSLQPEDFATYYCQQSYSSPGITFGPGTKVEIK
B3: TPP-883 Fab variant M35I of CDR-H1 (Fab, V domains shown)
VH: B2 VH with M35I
VL: B2 VL with G31S

What was measured:
[1] = target: TPP-1984 (hTNFRSF12Aaa28-68-CT-His) (human); assay: ELISA, TPP-1984 coated at 1 µg/ml, biotinylated IgG at 0.08 and 0.3 µg/ml, Streptavidin-HRP, Amplex Red
[2] = target: TPP-599 (HUMAN-TNFRSF12Aaa28-80-hIgG1-Fc) (human); assay: ELISA, 2.5 nM biotinylated TWEAKR-Fc coated, soluble Fab, anti-c-Myc detection

Binder | binding [1] | binding [2]
B1 | no binding (tested: 0.3 µg/ml) | –
B2 | – | binds
B3 | – | binds
